B1: BirA*-FLAG-MST1 aa 328–487 (domain or fragment, UniProt Q13043-1 328-487)
chain: GTMVRAVGDEMGTVRVASTMTDGANTMIEHDDTLPSQLGTMVINAEDEEEEGTMKRRDETMQPAKPSFLEYFEQKEKENQINSFGKSVPGPLKNSSDWKIPQDGDYEFLKSWTVEDLQKRLLALDPMMEQEIEEIRQKYQSKRQPILDAIEAKKRRQQNF
B2: BirA*-FLAG-MST1 aa 1–327 (domain or fragment, UniProt Q13043-1 1-327)
chain: METVQLRNPPRRQLKKLDEDSLTKQPEEVFDVLEKLGEGSYGSVYKAIHKETGQIVAIKQVPVESDLQEIIKEISIMQQCDSPHVVKYYGSYFKNTDLWIVMEYCGAGSVSDIIRLRNKTLTEDEIATILQSTLKGLEYLHFMRKIHRDIKAGNILLNTEGHAKLADFGVAGQLTDTMAKRNTVIGTPFWMAPEVIQEIGYNCVADIWSLGITAIEMAEGKPPYADIHPMRAIFMIPTNPPPTFRKPELWSDNFTDFVKQCLVKSPEQRATATQLLQHPFVRSAKGVSILRDLINEAMDVKLKRQESQQREVDQDDEENSEEDEMDS
B3: 3xFLAG-MST1 T353A/T367A double mutant (protein, UniProt Q13043-1 1-487)
chain: METVQLRNPPRRQLKKLDEDSLTKQPEEVFDVLEKLGEGSYGSVYKAIHKETGQIVAIKQVPVESDLQEIIKEISIMQQCDSPHVVKYYGSYFKNTDLWIVMEYCGAGSVSDIIRLRNKTLTEDEIATILQSTLKGLEYLHFMRKIHRDIKAGNILLNTEGHAKLADFGVAGQLTDTMAKRNTVIGTPFWMAPEVIQEIGYNCVADIWSLGITAIEMAEGKPPYADIHPMRAIFMIPTNPPPTFRKPELWSDNFTDFVKQCLVKSPEQRATATQLLQHPFVRSAKGVSILRDLINEAMDVKLKRQESQQREVDQDDEENSEEDEMDSGTMVRAVGDEMGTVRVASTMTDGANAMIEHDDTLPSQLGAMVINAEDEEEEGTMKRRDETMQPAKPSFLEYFEQKEKENQINSFGKSVPGPLKNSSDWKIPQDGDYEFLKSWTVEDLQKRLLALDPMMEQEIEEIRQKYQSKRQPILDAIEAKKRRQQNF
B4: 3xFLAG-MST1 T353A/T367A/T387A triple mutant (protein, UniProt Q13043-1 1-487)
chain: METVQLRNPPRRQLKKLDEDSLTKQPEEVFDVLEKLGEGSYGSVYKAIHKETGQIVAIKQVPVESDLQEIIKEISIMQQCDSPHVVKYYGSYFKNTDLWIVMEYCGAGSVSDIIRLRNKTLTEDEIATILQSTLKGLEYLHFMRKIHRDIKAGNILLNTEGHAKLADFGVAGQLTDTMAKRNTVIGTPFWMAPEVIQEIGYNCVADIWSLGITAIEMAEGKPPYADIHPMRAIFMIPTNPPPTFRKPELWSDNFTDFVKQCLVKSPEQRATATQLLQHPFVRSAKGVSILRDLINEAMDVKLKRQESQQREVDQDDEENSEEDEMDSGTMVRAVGDEMGTVRVASTMTDGANAMIEHDDTLPSQLGAMVINAEDEEEEGTMKRRDEAMQPAKPSFLEYFEQKEKENQINSFGKSVPGPLKNSSDWKIPQDGDYEFLKSWTVEDLQKRLLALDPMMEQEIEEIRQKYQSKRQPILDAIEAKKRRQQNF

By UniProt entry, the sequences of proteins in these tests, tags left out. Where a name states a change or a piece, a line headed by the entry shows the natural chain unless it says otherwise.
UniProt Q7L9L4: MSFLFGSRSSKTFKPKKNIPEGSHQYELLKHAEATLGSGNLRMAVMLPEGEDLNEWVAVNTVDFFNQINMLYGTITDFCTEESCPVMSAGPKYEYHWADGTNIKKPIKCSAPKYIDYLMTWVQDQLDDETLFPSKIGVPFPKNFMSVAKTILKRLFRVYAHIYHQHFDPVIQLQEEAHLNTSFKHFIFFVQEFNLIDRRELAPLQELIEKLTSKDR

No constants are given. Whether binding was seen depends on the method and setting. In cells and extracts the contact can be indirect. Binding calls can cover weak binding; strength is not graded here. Sequences can lack the tags named with a protein.

This test addresses GST-MOB1B (human) (UniProt Q7L9L4). Description: pull-down; ~1 ug GST-MOB1B on glutathione-Sepharose beads, 2 h with lysate (CHAPS lysis buffer: 40 mM Hepes pH 7.5, 120 mM NaCl, 1 mM EDTA, 0.3% CHAPS) of cells expressing FLAG- or BirA*-FLAG-tagged MST1 constructs after 150 nM okadaic acid for 2.5 h; anti-FLAG immunoblot; only the target purified. Background: A western blot detects proteins with antibodies after separation by electrophoresis.
For the molecule B1, the binding result is given as “binds”.
Consider B2, for which the binding result is recorded as “no binding”.
Turning to B3, the binding result is recorded as “binds”.
In the case of B4 it was “binds”.

For the origin of these results see paper PMC5461540, “MOB1 Mediated Phospho-recognition in the Core Mammalian Hippo Pathway” (Molecular & Cellular Proteomics : MCP, 2017).
